Experimental data: the supplement of paper PMC6445147
This is a noisy data set.

B1: human tRNA-Pro; a variant is named by its letters at N, in order (parent)
chain: GGCTCGTTGGTCTAGNGGTATGATTCTCGCTTAGGGTGCGAGAGGTCCCGGGTTCNNATCCCGGACGAGCCC

Experiments:
[1] = variants of: B1; assay: tRNA Pol-III promoter activity, log2 (circRNA frequency / plasmid DNA frequency) (log2 ratio); higher = stronger promoter activity; details: HEK293T; construct: no Pol-II promoter ((-)CMV library)
[2] = variants of: B1; assay: tRNA 3' processing efficiency (processed reads / all reads, maximum-likelihood estimate) (fraction); higher = more efficient 3' processing; details: HEK293T; construct: no Pol-II promoter ((-)CMV library)

Variant | tRNA Pol-III promoter activity (log2) [1] | tRNA 3' processing efficiency [2]
GGCTCGTTGGTCTAGTGGTGTGATTCTCGCTTAGGGTGCGAGAGGTCCCGGGTTCTAATCCCGGACGAGCCC | 3.43 | 0.24
GGCTCGTTGGTCTAGTGGTGTGATTCTCGCTTAGGGTGCGAGAGGTCCCGGGTTCTATTCCCGGACGAGCCC | 4.59 | 0.27
GGCTCGTTGGTCTAGTGGTGTGATTCTCGCTTAGGGTGCGAGAGGTCCCGGGTTCTACTCCCGGACGAGCCC | 5.91 | 0.73
GGCTCGTTGGTCTTGGGGTATGATTCTCGCTTAGGGTGCGAGAGGTCCCGGGTTCTATCCCCGGACGAGCCC | 5.26 | 0.57
GGCTCGTTGGTCTTGGGGGATGATTCTCGCTTAGGGTGCGAGAGGTCCCGGGTTCTAATCCCGGACGAGCCC | 2.76 | 0.5
GGCTCGTTGGTCTTGGGGCATGATTCTCGCTTAGGGTGCGAGAGGTCCCGGGTTCTAATCCCGGACGAGCCC | 5.03 | 0.25
GGCTCGTTGGTCTTGGGGAATGATTCTCGCTTAGGGTGCGAGAGGTCCCGGGTTCTAATCCCGGACGAGCCC | 3.94 | 0.64
GGCTCGTTGGTCTTGGTGTTTGATTCTCGCTTAGGGTGCGAGAGGTCCCGGGTTCTAATCCCGGACGAGCCC | 4.36 | 0.4
GGCTCGTTGGTCTTGGGCTATGATTCTCGCTTAGGGTGCGAGAGGTCCCGGGTTCTAACCCCGGACGAGCCC | 6.51 | 0.33
GGCTCGTTGGTCTTGGGGTATGATTCTCGCTTAGGGTGCGAGAGGTCCCGGGATCTAATCCCGGACGAGCCC | 3.71 | 0.5
GGCTCGTTGGTCTTCGGGTATGATTCTCGCTTAGGGTGCGAGAGGTCCCGGGTTCTAATCCCGGACGAGCCC | 2.13 | 0.5
GGCTCGTTGGTCTTAGGGTATGATTCTCGCTTAGGGTGCGAGAGGTCCCGGGTTCTAATCCCGGACGAGCCC | 2.56 | 0.2
GGCTCGTTGGTCTTGGGGAATGATTCTCGCTTAGGGTGCGAGAGGTCCCGGGTTCTATTCCCGGACGAGCCC | 3.51 | 0.17
GGCTCGTTGGTCTTGGGGTTTGATTCTCGCTTAGGGTGCGAGAGGTCCCGGGTTCTAACCCCGGACGAGCCC | 5.51 | 0.45
GGCTCGTTGGTCTTGTGGTATGATTCTCGCTTAGGGTGCGAGAGGTCCCGGGTTCTAAACCCGGACGAGCCC | 5.03 | 0.25
GGCTCGTTGGTCTAGGGGTGTGATTCTCGCTTAGGGTGCGAGAGGTCCCGGGTTCTAATCCCGGACGAGCCC | 0.876 | 0.3
GGCTCGTTGGTCTAGGGGTCTGATTCTCGCTTAGGGTGCGAGAGGTCCCGGGTTCTAATCCCGGACGAGCCC | 1.11 | 0.29
GGCTCGTTGGTCTAGGGGTCTGATTCTCGCTTAGGGTGCGAGAGGTCCCGGGTTCTAGTCCCGGACGAGCCC | 4.09 | 0.21
GGCTCGTTGGTCTAGTGGTGTGATTCTCGCTTAGGGTGCGAGAGGTCCCGGGTTCTACCCCCGGACGAGCCC | 5.03 | 0.25

Variant | tRNA Pol-III promoter activity (log2) [1] | tRNA 3' processing efficiency [2]
GGCTCGTTGGTCTTGGGGTATGATTCTCGCTTAGGGTGCGAGAGGTCCCGGGTTCTAGTCCCGGACGAGCCC | 3.2 | 0.15
GGCTCGTTGGTCTTGGGGTATGATTCTCGCTTAGGGTGCGAGAGGTCCCGGGTTCTACTCCCGGACGAGCCC | 3.22 | 0.23
GGCTCGTTGGTCTTGGGGTATGATTCTCGCTTAGGGTGCGAGAGGTCCCGGGTTCTATTCCCGGACGAGCCC | 3.51 | 0.25
GGCTCGTTGGTCTTGTGGTATGATTCTCGCTTAGGGTGCGAGAGGTCCCGGGTTCTAATCCCGGACGAGCCC | 2.34 | 0.31
GGCTCGTTGGTCTTGGTGTATGATTCTCGCTTAGGGTGCGAGAGGTCCCGGGTTCTAATCCCGGACGAGCCC | 1.51 | 0.33
GGCTCGTTGGTCTTGTGGTATGATTCTCGCTTAGGGTGCGAGAGGTCCCGGGATCTAATCCCGGACGAGCCC | 4.62 | 0.29
GGCTCGTTGGTCTAGGGGTGTGATTCTCGCTTAGGGTGCGAGAGGTCCCGGGTTCTACTCCCGGACGAGCCC | 3.67 | 0.2
GGCTCGTTGGTCTAGGGGTGTGATTCTCGCTTAGGGTGCGAGAGGTCCCGGGTTCTAGTCCCGGACGAGCCC | 4.26 | 0.4
GGCTCGTTGGTCTTGCGGTATGATTCTCGCTTAGGGTGCGAGAGGTCCCGGGTTCTACTCCCGGACGAGCCC | 6.03 | 0.13
GGCTCGTTGGTCTTGCGGTATGATTCTCGCTTAGGGTGCGAGAGGTCCCGGGTTCTATTCCCGGACGAGCCC | 5.84 | 0.57
GGCTCGTTGGTCTTGTGGTATGATTCTCGCTTAGGGTGCGAGAGGTCCCGGGTTCTATTCCCGGACGAGCCC | 6.93 | 0.38
GGCTCGTTGGTCTAGAGGTGTGATTCTCGCTTAGGGTGCGAGAGGTCCCGGGTTCTATTCCCGGACGAGCCC | 4.52 | 0.14
GGCTCGTTGGTCTTGGGGTATGATTCTCGCTTAGGGTGCGAGAGGTCCCGGGTTCTAAACCCGGACGAGCCC | 4.62 | 0.17
GGCTCGTTGGTCTTGGGGTATGATTCTCGCTTAGGGTGCGAGAGGTCCCGGGTTCTAAGCCCGGACGAGCCC | 3.4 | 0.83
GGCTCGTTGGTCTAGAGGTGTGATTCTCGCTTAGGGTGCGAGAGGTCCCGGGTTCTAATCCCGGACGAGCCC | 4.3 | 0.61
GGCTCGTTGGTCTAGAGGTCTGATTCTCGCTTAGGGTGCGAGAGGTCCCGGGTTCTAATCCCGGACGAGCCC | 2.67 | 0.2
GGCTCGTTGGTCTTGGGTTATGATTCTCGCTTAGGGTGCGAGAGGTCCCGGGTTCTAATCCCGGACGAGCCC | 5.91 | 0.73
GGCTCGTTGGTCTTGGGATATGATTCTCGCTTAGGGTGCGAGAGGTCCCGGGTTCTAATCCCGGACGAGCCC | 3.36 | 0.33
GGCTCGTTGGTCTAGCGGTGTGATTCTCGCTTAGGGTGCGAGAGGTCCCGGGTTCTAATCCCGGACGAGCCC | 3.18 | 0.23

For convenience, some entries already given.
Variant | tRNA Pol-III promoter activity (log2) [1] | tRNA 3' processing efficiency [2]
GGCTCGTTGGTCTTGGGGCATGATTCTCGCTTAGGGTGCGAGAGGTCCCGGGTTCTAATCCCGGACGAGCCC | 5.03 | 0.25
GGCTCGTTGGTCTTGGGGAATGATTCTCGCTTAGGGTGCGAGAGGTCCCGGGTTCTAATCCCGGACGAGCCC | 3.94 | 0.64
GGCTCGTTGGTCTTGGTGTTTGATTCTCGCTTAGGGTGCGAGAGGTCCCGGGTTCTAATCCCGGACGAGCCC | 4.36 | 0.4
GGCTCGTTGGTCTTGGGCTATGATTCTCGCTTAGGGTGCGAGAGGTCCCGGGTTCTAACCCCGGACGAGCCC | 6.51 | 0.33
GGCTCGTTGGTCTTGGGGTATGATTCTCGCTTAGGGTGCGAGAGGTCCCGGGATCTAATCCCGGACGAGCCC | 3.71 | 0.5
GGCTCGTTGGTCTTCGGGTATGATTCTCGCTTAGGGTGCGAGAGGTCCCGGGTTCTAATCCCGGACGAGCCC | 2.13 | 0.5
GGCTCGTTGGTCTTAGGGTATGATTCTCGCTTAGGGTGCGAGAGGTCCCGGGTTCTAATCCCGGACGAGCCC | 2.56 | 0.2
GGCTCGTTGGTCTTGGGGAATGATTCTCGCTTAGGGTGCGAGAGGTCCCGGGTTCTATTCCCGGACGAGCCC | 3.51 | 0.17
GGCTCGTTGGTCTTGGGGTTTGATTCTCGCTTAGGGTGCGAGAGGTCCCGGGTTCTAACCCCGGACGAGCCC | 5.51 | 0.45
GGCTCGTTGGTCTTGTGGTATGATTCTCGCTTAGGGTGCGAGAGGTCCCGGGTTCTAAACCCGGACGAGCCC | 5.03 | 0.25
